Results are given in words; binding and its absence hold for the method and conditions named. In cells and extracts the contact can be indirect. Some entries that bind do so weakly or less than the wild type. For some assays here: Tags and fused reporters may be left off the sequences shown.
Assays:
[1] = target: T1, GFP-tagged PAICS (phosphoribosylaminoimidazole carboxylase, phosphoribosylaminoimidazole succinocarboxamide synthetase) (UniProt P22234); experiment: co-IP; HEK293T cells co-transfected with Flag-vector/GFP-vector or Flag-HDAC1/GFP-PAICS, with or without CDDP (10 µg/mL for 12 h, 2-h recovery); NETN buffer; anti-GFP IP, blot with anti-GFP and anti-Flag
T1 sequence: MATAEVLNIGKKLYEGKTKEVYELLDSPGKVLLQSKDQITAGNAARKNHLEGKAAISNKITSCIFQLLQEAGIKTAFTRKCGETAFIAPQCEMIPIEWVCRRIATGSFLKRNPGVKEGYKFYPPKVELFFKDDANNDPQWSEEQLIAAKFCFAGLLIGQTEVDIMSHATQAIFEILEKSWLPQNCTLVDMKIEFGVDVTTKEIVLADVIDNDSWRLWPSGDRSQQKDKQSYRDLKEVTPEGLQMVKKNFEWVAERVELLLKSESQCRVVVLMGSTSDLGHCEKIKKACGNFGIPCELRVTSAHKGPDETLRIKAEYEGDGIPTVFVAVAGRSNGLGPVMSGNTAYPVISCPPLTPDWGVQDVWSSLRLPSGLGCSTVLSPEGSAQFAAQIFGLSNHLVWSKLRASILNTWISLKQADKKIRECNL

Protein sequences, listed by entry. Tags and fused reporters are not part of them.
UniProt Q92769: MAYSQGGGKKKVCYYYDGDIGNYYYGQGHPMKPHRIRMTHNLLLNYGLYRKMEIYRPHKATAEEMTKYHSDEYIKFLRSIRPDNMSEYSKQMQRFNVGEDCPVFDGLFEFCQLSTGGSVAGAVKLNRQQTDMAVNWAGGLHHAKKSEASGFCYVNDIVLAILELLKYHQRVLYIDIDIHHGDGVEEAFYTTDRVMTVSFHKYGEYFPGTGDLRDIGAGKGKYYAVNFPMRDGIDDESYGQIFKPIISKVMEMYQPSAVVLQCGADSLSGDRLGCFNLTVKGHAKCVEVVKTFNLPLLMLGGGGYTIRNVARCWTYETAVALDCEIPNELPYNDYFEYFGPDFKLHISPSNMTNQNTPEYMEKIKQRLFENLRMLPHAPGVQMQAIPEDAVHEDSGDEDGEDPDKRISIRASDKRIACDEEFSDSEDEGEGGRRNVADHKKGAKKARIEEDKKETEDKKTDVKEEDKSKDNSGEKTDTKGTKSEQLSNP
UniProt Q13547: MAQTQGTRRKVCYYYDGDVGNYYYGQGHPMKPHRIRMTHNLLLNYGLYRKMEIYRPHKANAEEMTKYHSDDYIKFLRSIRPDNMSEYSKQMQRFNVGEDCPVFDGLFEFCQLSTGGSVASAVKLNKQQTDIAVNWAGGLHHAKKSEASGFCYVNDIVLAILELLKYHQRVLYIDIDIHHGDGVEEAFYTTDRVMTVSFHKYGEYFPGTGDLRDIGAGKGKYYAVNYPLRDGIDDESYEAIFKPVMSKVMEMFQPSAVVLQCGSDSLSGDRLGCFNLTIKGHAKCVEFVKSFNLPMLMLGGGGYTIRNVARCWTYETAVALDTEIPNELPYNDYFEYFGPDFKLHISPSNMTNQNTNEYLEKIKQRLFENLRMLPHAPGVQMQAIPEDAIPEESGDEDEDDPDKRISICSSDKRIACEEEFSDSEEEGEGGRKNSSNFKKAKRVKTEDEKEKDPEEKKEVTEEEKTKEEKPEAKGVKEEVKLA

[2] = target: T1, GFP-tagged PAICS (phosphoribosylaminoimidazole carboxylase, phosphoribosylaminoimidazole succinocarboxamide synthetase); experiment: co-IP; HEK293T cells transfected with GFP-vector or GFP-PAICS, with or without CDDP (10 µg/mL for 12 h, 2-h recovery); NETN buffer (20 mM Tris-HCl pH 8.0, 0.5% Nonidet P-40, 200 mM NaCl, 1 mM EDTA); anti-GFP IP, blot with anti-HDAC1 and anti-HDAC2
[3] = target: HDAC2, endogenous in SGC-7901 cells (human (endogenous in SGC-7901)) (UniProt Q92769); experiment: co-IP; endogenous proteins of SGC-7901 cells, with or without CDDP (10 µg/mL for 12 h, 2-h recovery); NETN buffer; IP with anti-HDAC1 or anti-HDAC2, blot with anti-PAICS, anti-HDAC1 or anti-HDAC2
[4] = target: HDAC1, endogenous in SGC-7901 cells (human (endogenous in SGC-7901)) (UniProt Q13547); experiment: as above

Molecule: Flag-tagged HDAC1 (from UniProt Q13547 1-482) (enzyme)
- binding [1]: binds

Molecule: histone deacetylase HDAC1, endogenous in HEK293T cells (from UniProt Q13547 1-482) (enzyme)
- binding [2]: binds

Molecule: histone deacetylase HDAC2, endogenous in HEK293T cells (from UniProt Q92769 1-488) (enzyme)
- binding [2]: binds

B1: PAICS, endogenous in SGC-7901 cells (enzyme, UniProt P22234 1-425)
chain: MATAEVLNIGKKLYEGKTKEVYELLDSPGKVLLQSKDQITAGNAARKNHLEGKAAISNKITSCIFQLLQEAGIKTAFTRKCGETAFIAPQCEMIPIEWVCRRIATGSFLKRNPGVKEGYKFYPPKVELFFKDDANNDPQWSEEQLIAAKFCFAGLLIGQTEVDIMSHATQAIFEILEKSWLPQNCTLVDMKIEFGVDVTTKEIVLADVIDNDSWRLWPSGDRSQQKDKQSYRDLKEVTPEGLQMVKKNFEWVAERVELLLKSESQCRVVVLMGSTSDLGHCEKIKKACGNFGIPCELRVTSAHKGPDETLRIKAEYEGDGIPTVFVAVAGRSNGLGPVMSGNTAYPVISCPPLTPDWGVQDVWSSLRLPSGLGCSTVLSPEGSAQFAAQIFGLSNHLVWSKLRASILNTWISLKQADKKIRECNL
- binding [3]: binds
- binding [4]: binds

From article PMC7338359
